Data as given in PubChem BioAssay AID1259405 (NCATS, 2018)

Purpose: 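Silenced genes that increase secreted GFP made by CHO cells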 (primary screen)
Cells: Chinese hamster CHO-K1 ovary cells with stable secreted eGFP expression
Reagents: single siRNA against mouse genes, 0.8 pmol siRNA per well (2 µl of 400 nM stock)
Timing: 3 days
Measured: 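Percent of the per-plate non-targeting control median for intracellular GFP per well by laser scanning cytometry and for cell viability by ATP luminescence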
Direction: GFP, % of control: higher = more GFP per well, higher productivity; viability (ATP), % of control: higher = more viable cells (more ATP)
Rule for the call: 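a knock-down is called active if GFP reaches 120% or more of non-targeting control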
Shown is a random part of about 50,000 deposited reagents. In the full data, about 4,000 (8%) are marked active. 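Mouse siRNA library applied to hamster cells; one well for each siRNA.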 Entries without a mark were called inactive. The numbers tell different reagents against one gene apart. Reagent sequences are not shown.

"GFP, % of control","viability (ATP), % of control",gene knocked down,siRNA no.
72.8,55.1,Aftph,1
80.3,93.1,Aftph,2
122 (active),122,Aftph,3
94.2,78.3,Hbq1b,1
104,76.5,Hbq1b,2
75.9,65.2,Hbq1b,3
92.4,74.1,Apc,1
52.7,102,Apc,2
109,98.2,Islr,1
65.2,37.7,Islr,2
87.7,63.4,Islr,3
67.7,68.4,Cdk8,1
75.3,93.3,Decr1,1
75.7,51.5,Decr1,2
61.3,60.2,Decr1,3
61.8,70.3,Dguok,1
66.4,73,Luzp2,1
56.1,38.7,Luzp2,2
29.9,36.1,Luzp2,3
105,92.1,Atg4b,1
98.2,73.2,Atg4b,2
129 (active),100,Pdcd6ip,1
80.4,74.6,Pdcd6ip,2
67.1,71,Pdcd6ip,3
50.9,76.6,Vwa5a,1
136 (active),101,Vwa5a,2
81.2,65.6,Grhl2,1
67.2,72.6,Grhl2,2
71.2,79.7,Grhl2,3
82.3,78.5,Styx,1
110,78.6,Styx,2
98.9,96.6,Cabp5,1
114,105,Cabp5,2

The list goes on, starting with the last 11 of the part before.
"GFP, % of control","viability (ATP), % of control",gene knocked down,siRNA no.
80.4,74.6,Pdcd6ip,2
67.1,71,Pdcd6ip,3
50.9,76.6,Vwa5a,1
136 (active),101,Vwa5a,2
81.2,65.6,Grhl2,1
67.2,72.6,Grhl2,2
71.2,79.7,Grhl2,3
82.3,78.5,Styx,1
110,78.6,Styx,2
98.9,96.6,Cabp5,1
114,105,Cabp5,2
79.6,89.5,Gm5420,1
89.4,82.5,Gm5420,2
85.1,35.2,Gm5420,3
57.5,74.8,Spmip8,1
94.6,73.7,Spmip8,2
64.4,65.8,Spmip8,3
53.6,52.4,Csnk1e,1
25,22,Myoz2,1
62.5,86.5,Myoz2,2
63.1,43,Cfap263,1
71.9,80.3,Cfap263,2
123 (active),124,Cfap263,3
58.2,39.9,Sncb,1
116,74.1,Sncb,2
103,66.8,Sncb,3
113,114,Nfix,1
52,72.4,Nfix,2
123 (active),91.9,Nfix,3
98,89.5,Plpp2,1
124 (active),81.7,Plpp2,2
94.8,104,Plpp2,3
68.9,50.8,Lgals7,1
47.8,33.1,Lgals7,2
84.1,63.6,Lgals7,3
74.5,89.1,Or8b38,1
72.4,61.5,Or8b38,2
65.5,95,Or8b38,3
86.1,88.8,Tprg1l,1
71.3,74,Tprg1l,2
72.2,45.6,Tprg1l,3
105,58.5,Or5an1c,1
82.4,90,Or5an1c,2
28.7,31.4,Or5an1c,3
114,70.3,Pp2d1,1
77.3,73.5,Pp2d1,2
62.2,101,Pp2d1,3
67,56,Gpank1,1
77.8,68.6,Gpank1,2
230 (active),126,Gpank1,3
71.3,156,Col12a1,1
74.4,71.1,Col12a1,2
109,80.7,Hrh3,1
86.5,48.3,Hrh3,2
68.9,67.5,Hrh3,3
22.2,13.5,Msl1,1
123 (active),49.8,Msl1,2
76.5,116,Msl1,3
93.4,100,H2-Ea,1
116,88.8,H2-Ea,2
82.2,89.2,H2-Ea,3
62.7,72.1,3010003L21Rik,1
57.4,67.5,3010003L21Rik,2
78.3,78,3010003L21Rik,3
